Measurements as given in article PMC12774657.
Results are given in words; binding and its absence hold for the method and conditions named. In cells and extracts the contact can be indirect. Here binding means that the protein was enriched with, or labelled near, the bait; the list need not be complete.

Amino acid sequences for entries named in this document (tags omitted). A change or cut given only in a name is not applied to a line headed by its entry. Chains listed by the source or under a name are the forms on record and can include a tag or linker. Residues count along the entry.
UniProt P81133: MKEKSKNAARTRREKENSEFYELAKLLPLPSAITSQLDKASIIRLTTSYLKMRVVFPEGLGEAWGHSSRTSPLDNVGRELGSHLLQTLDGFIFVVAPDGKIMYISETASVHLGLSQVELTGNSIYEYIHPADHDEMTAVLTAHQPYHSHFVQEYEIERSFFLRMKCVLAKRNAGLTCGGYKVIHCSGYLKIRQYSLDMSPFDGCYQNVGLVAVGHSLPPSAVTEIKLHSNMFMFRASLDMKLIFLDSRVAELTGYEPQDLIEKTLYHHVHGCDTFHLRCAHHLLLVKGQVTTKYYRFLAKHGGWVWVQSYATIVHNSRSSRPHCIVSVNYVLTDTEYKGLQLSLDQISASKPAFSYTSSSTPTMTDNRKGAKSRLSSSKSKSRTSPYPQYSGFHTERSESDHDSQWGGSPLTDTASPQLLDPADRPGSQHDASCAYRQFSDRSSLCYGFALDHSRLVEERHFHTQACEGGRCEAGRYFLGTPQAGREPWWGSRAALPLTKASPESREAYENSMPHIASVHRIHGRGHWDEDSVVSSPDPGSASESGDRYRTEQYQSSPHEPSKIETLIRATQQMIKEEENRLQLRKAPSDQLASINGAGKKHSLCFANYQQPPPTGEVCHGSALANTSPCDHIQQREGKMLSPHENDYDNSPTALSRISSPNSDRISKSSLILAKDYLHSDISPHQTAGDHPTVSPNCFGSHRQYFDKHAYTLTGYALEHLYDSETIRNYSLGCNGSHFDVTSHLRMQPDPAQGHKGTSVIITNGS
hSim1.3xFlag2xStrep(1–348): residues 1-348 of P81133
hSim1(R171H).3xFlag2xStrep(1–348) (P81133, form named): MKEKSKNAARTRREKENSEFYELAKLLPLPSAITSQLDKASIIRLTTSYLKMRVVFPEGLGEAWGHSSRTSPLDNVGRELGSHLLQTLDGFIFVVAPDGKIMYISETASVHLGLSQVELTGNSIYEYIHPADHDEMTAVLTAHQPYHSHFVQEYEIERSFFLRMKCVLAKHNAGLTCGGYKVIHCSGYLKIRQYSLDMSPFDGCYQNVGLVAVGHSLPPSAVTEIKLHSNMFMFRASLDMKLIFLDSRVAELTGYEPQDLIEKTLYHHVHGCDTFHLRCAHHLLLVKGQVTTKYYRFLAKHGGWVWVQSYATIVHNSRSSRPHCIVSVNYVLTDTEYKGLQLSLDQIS
UniProt P27540: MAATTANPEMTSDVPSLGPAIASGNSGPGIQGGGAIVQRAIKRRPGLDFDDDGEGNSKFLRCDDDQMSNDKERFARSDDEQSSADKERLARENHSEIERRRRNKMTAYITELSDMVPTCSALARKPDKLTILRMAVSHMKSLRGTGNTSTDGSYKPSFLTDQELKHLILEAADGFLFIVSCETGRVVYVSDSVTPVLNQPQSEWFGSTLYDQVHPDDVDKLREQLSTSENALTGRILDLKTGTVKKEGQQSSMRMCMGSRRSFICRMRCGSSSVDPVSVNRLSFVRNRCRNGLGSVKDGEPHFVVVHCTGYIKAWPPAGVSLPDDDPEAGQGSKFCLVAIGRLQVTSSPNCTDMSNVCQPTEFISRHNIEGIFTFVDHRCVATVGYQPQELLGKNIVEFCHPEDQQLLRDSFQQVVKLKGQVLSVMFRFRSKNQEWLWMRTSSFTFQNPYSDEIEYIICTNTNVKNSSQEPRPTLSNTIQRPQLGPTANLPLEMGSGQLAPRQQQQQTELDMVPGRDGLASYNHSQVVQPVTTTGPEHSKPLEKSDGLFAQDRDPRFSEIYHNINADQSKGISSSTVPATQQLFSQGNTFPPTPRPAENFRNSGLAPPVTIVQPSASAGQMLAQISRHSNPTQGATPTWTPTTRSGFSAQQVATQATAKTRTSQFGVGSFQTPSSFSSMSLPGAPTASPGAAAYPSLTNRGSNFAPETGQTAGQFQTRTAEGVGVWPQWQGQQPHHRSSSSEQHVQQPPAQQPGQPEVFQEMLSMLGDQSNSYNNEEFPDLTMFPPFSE

How the values were obtained:
[1] = molecular target: hSIM1-2×HA-3×Flag, full length (human) (UniProt P81133); test: affinity purification with mass spectrometry; full-length SIM1-2×HA-3×Flag (WT or R171H) in stable HEK293T cells; in-cell DSP cross-linking; whole cell lysate; tandem Flag M2 then HA resin; parent HEK293T as mock
[2] = molecular target: hSIM1.R171H-2xHA-3×Flag, full length (human) (UniProt P81133); test: as above
[3] = molecular target: hSIM1-2×HA-3×Flag, full length (human) (UniProt P81133); test: affinity purification with mass spectrometry; native, no cross-linker: nuclear extract (420 mM KCl, diluted to ~280 mM KCl) of stable HEK293T cells with full-length SIM1-2×HA-3×Flag (WT or R171H); tandem Flag M2 then HA resin
[4] = molecular target: hSIM1.R171H-2xHA-3×Flag, full length (human) (UniProt P81133); test: as above
[5] = molecular target: hSim1(R171H).3xFlag2xStrep(1–348) (human) (UniProt P81133); test: affinity purification with mass spectrometry; N-terminal domain: HEK293T co-transfected with hSim1(1–348) 3xFlag2xStrep (WT or R171H) and hARNT2(1-455)-Myc; in-cell DSP cross-linking; whole cell lysate in 420 mM NaCl, 1% Triton X-100; Flag resin, eluted with 3×Flag peptide; mock purification subtracted
[6] = molecular target: hSim1.3xFlag2xStrep(1–348) (human) (UniProt P81133); test: as above

binding [1]: binds
binding [2]: binds
binding [3]: binds
binding [4]: binds
binding [5]: binds
binding [6]: binds
Substance: ARNT (endogenous in HEK293T cells) (from UniProt P27540 1-789)
